Measured values: patent publication US8962845B2, “Pyrazole compounds” (National Health Research Institutes, priority 2011, dated 2015)
Some results were stated once for a whole list of compounds, not compound by compound.

Amino acid sequences for entries named in this document (tags omitted).
UniProt P21554, whole entry: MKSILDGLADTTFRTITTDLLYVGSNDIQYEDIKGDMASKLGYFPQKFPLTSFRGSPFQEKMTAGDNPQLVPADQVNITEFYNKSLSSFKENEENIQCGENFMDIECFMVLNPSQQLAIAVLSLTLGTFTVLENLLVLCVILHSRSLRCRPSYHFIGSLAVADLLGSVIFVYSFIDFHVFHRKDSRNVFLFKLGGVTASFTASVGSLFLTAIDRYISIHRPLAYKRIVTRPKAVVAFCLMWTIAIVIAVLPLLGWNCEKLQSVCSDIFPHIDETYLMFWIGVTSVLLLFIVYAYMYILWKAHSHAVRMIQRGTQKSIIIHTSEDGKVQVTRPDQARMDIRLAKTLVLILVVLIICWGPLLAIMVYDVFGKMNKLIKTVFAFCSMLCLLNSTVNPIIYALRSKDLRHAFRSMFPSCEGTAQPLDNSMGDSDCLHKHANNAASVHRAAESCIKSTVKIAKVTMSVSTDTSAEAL

molecular target: T1, Human CB1 receptor (Homo sapiens, UniProt P21554); assay: DELFIA GTP-binding assay; format: biochemical; conditions: 20 nM CP55,940; HEK293 membranes; units given in the value
T1 construct: expressed in transfected cells

Question: Which “EC50 for inhibiting Eu-GTP binding (CP55,940-stimulated CB1 receptor activation)” value (from here on “EC50 for inhibiting Eu-GTP binding”) does the source give for `O=C(NN1CCCCC1)c1nn(-c2ccc(Cl)cc2Cl)c(-c2ccc(C#Cc3ccc(C(F)(F)F)cc3)s2)c1CN1CCNCC1` [Compound 109, 1-(2,4-Dichlorophenyl)-4-(piperazin-1-ylmethyl)-N-(piperidin-1-yl)-5-(5-((4-(trifluoromethyl)phenyl)ethynyl)thiophen-2-yl)-1H-pyrazole-3-carboxamide] here?
Answer: Its value is 0.001 µM and 10 µM.

Question: For `CCCC#Cc1ccc(-c2c(CNC(=O)NC3CC3)c(C(=O)NN3CCCCC3)nn2-c2ccc(Cl)cc2Cl)s1` [Compound 70, 4-((3-Cyclopropylureido)methyl)-1-(2,4-dichlorophenyl)-5-(5-(pent-1-ynyl)thiophen-2-yl)-N-(piperidin-1-yl)-1H-pyrazole-3-carboxamide], which “EC50 for inhibiting Eu-GTP binding” value is on record?
Answer: The value was 0.001 µM and 10 µM.

Question: With `CCOC(=O)NCc1c(C(=O)NN2CCCCC2)nn(-c2ccc(Cl)cc2Cl)c1-c1ccc(C#Cc2ccc(C(F)(F)F)cc2)s1` [Compound 18, Ethyl(1-(2,4-dichlorophenyl)-3-(piperidin-1-ylcarbamoyl)-5-(5-((4-(trifluoromethyl)phenyl)ethynyl)thiophen-2-yl)-1H-pyrazol-4-yl)methylcarbamate] as the molecule, how does the “EC50 for inhibiting Eu-GTP binding” value read?
Answer: The value was 0.001 µM and 10 µM.

Question: How did the “EC50 for inhibiting Eu-GTP binding” value turn out when `CCCC#Cc1ccc(-c2c(CNS(=O)(=O)NC)c(C(=O)NN3CCCCC3)nn2-c2ccc(Cl)cc2Cl)s1` [Compound 73, 1-(2,4-Dichlorophenyl)-4-((N-methylsulfamoylamino)methyl)-5-(5-(pent-1-ynyl)thiophen-2-yl)-N-(piperidin-1-yl)-1H-pyrazole-3-carboxamide] was run?
Answer: Its value is 0.001 µM and 10 µM.

Question: Which “EC50 for inhibiting Eu-GTP binding” value does the source give for `CN(Cc1c(C(=O)NN2CCCCC2)nn(-c2ccc(Cl)cc2Cl)c1-c1ccc(C#Cc2ccc(C(F)(F)F)cc2)s1)C1COC1` [Compound 95, 1-(2,4-Dichlorophenyl)-4-((methyl(oxetan-3-yl)amino)methyl)-N-(piperidin-1-yl)-5-(5-((4-(trifluoromethyl)phenyl)ethynyl)thiophen-2-yl)-1H-pyrazole-3-carboxamide] here?
Answer: The value was 0.001 µM and 10 µM.

Question: Which “EC50 for inhibiting Eu-GTP binding” value does the source give for `CCN1CCN(S(=O)(=O)NCc2c(C(=O)NN3CCCCC3)nn(-c3ccc(Cl)cc3Cl)c2-c2ccc(C#Cc3ccc(C(F)(F)F)cc3)s2)CC1` [Compound 33, 1-(2,4-Dichlorophenyl)-4-((4-ethylpiperazine-1-sulfonamido)methyl)-N-(piperidin-1-yl)-5-(5-((4-(trifluoromethyl)phenyl)ethynyl)thiophen-2-yl)-1H-pyrazole-3-carboxamide] here?
Answer: Its value is 0.001 µM and 10 µM.

Question: Which “EC50 for inhibiting Eu-GTP binding” value does the source give for `CCNC(=S)NCc1c(C(=O)NN2CCCCC2)nn(-c2ccc(Cl)cc2Cl)c1-c1ccc(Cl)cc1` [Compound 125, 5-(4-Chlorophenyl)-1-(2,4-dichlorophenyl)-4-((3-ethylthioureido)methyl)-N-(piperidin-1-yl)-1H-pyrazole-3-carboxamide] here?
Answer: The value was 0.001 µM and 10 µM.

Question: With `O=C(NN1CCCCC1)c1nn(-c2ccc(Cl)cc2Cl)c(-c2ccc(C#CC3CCCC3)s2)c1CNS(=O)(=O)C1CCCC1` [Compound 78, 4-(Cyclopentanesulfonamidomethyl)-5-(5-(cyclopentylethynyl)thiophen-2-yl)-1-(2,4-dichlorophenyl)-N-(piperidin-1-yl)-1H-pyrazole-3-carboxamide] as the molecule, how does the “EC50 for inhibiting Eu-GTP binding” value read?
Answer: The value was 0.001 µM and 10 µM.

Question: Which “EC50 for inhibiting Eu-GTP binding” value does the source give for `O=C(NN1CCCCC1)c1nn(-c2ccc(Cl)cc2Cl)c(-c2ccc(C#Cc3ccc(C(F)(F)F)cc3)s2)c1CNC1CC1` [Compound 89, 4-((Cyclopropylamino)methyl)-1-(2,4-dichlorophenyl)-N-(piperidin-1-yl)-5-(5-((4-(trifluoromethyl)phenyl)ethynyl)thiophen-2-yl)-1H-pyrazole-3-carboxamide] here?
Answer: Its value is 0.001 µM and 10 µM.

Question: How did the “EC50 for inhibiting Eu-GTP binding” value turn out when `CCCC#Cc1ccc(-c2c(CNS(=O)(=O)N3CCOCC3)c(C(=O)NN3CCCCC3)nn2-c2ccc(Cl)cc2Cl)s1` [Compound 64, 1-(2,4-Dichlorophenyl)-4-((morpholine-4-sulfonamido)methyl)-5-(5-(pent-1-ynyl)thiophen-2-yl)-N-(piperidin-1-yl)-1H-pyrazole-3-carboxamide] was run?
Answer: Its value is 0.001 µM and 10 µM.

Question: Which “EC50 for inhibiting Eu-GTP binding” value does the source give for `O=C(NN1CCCCC1)c1nn(-c2ccc(Cl)cc2Cl)c(-c2ccc(C#Cc3ccc(C(F)(F)F)cc3)s2)c1CNS(=O)(=O)N1CCCCC1` [Compound 34, 1-(2,4-Dichlorophenyl)-N-(piperidin-1-yl)-4-((piperidine-1-sulfonamido)methyl)-5-(5-((4-(trifluoromethyl)phenyl)ethynyl)thiophen-2-yl)-1H-pyrazole-3-carboxamide] here?
Answer: The value was 0.001 µM and 10 µM.

Question: How did the “EC50 for inhibiting Eu-GTP binding” value turn out when `O=C(NN1CCCCC1)c1nn(-c2ccc(Cl)cc2Cl)c(-c2ccc(C#Cc3ccc(C(F)(F)F)cc3)s2)c1CNS(=O)(=O)NC1CC1` [Compound 42, 4-((N-Cyclopropylsulfamoylamino)methyl)-1-(2,4-dichlorophenyl)-N-(piperidin-1-yl)-5-(5-((4-(trifluoromethyl)phenyl)ethynyl)thiophen-2-yl)-1H-pyrazole-3-carboxamide] was run?
Answer: Its value is 0.001 µM and 10 µM.

Question: How did the “EC50 for inhibiting Eu-GTP binding” value turn out when `O=C(NN1CCCCC1)c1nn(-c2ccc(Cl)cc2Cl)c(-c2ccc(C#Cc3ccc(C(F)(F)F)cc3)s2)c1CNS(=O)(=O)NC1CCCCCC1` [Compound 45, 4-((N-Cycloheptylsulfamoylamino)methyl)-1-(2,4-dichlorophenyl)-N-(piperidin-1-yl)-5-(5-((4-(trifluoromethyl)phenyl)ethynyl)thiophen-2-yl)-1H-pyrazole-3-carboxamide] was run?
Answer: The value was 0.001 µM and 10 µM.

Question: How did the “EC50 for inhibiting Eu-GTP binding” value turn out when `COC(=O)NCc1c(C(=O)NN2CCCCC2)nn(-c2ccc(Cl)cc2Cl)c1-c1ccc(Cl)cc1` [Compound 126, Methyl(5-(4-chlorophenyl)-1-(2,4-dichlorophenyl)-3-(piperidin-1-ylcarbamoyl)-1H-pyrazol-4-yl)methylcarbamate] was run?
Answer: The value was 0.001 µM and 10 µM.

Question: Which “EC50 for inhibiting Eu-GTP binding” value does the source give for `O=C(NN1CCCCC1)c1nn(-c2ccc(Cl)cc2Cl)c(-c2ccc(C#Cc3ccc(C(F)(F)F)cc3)s2)c1CNS(=O)(=O)c1cnc[nH]1` [Compound 32, 4-((1H-Imidazole-5-sulfonamido)methyl)-1-(2,4-dichlorophenyl)-N-(piperidin-1-yl)-5-(5-((4-(trifluoromethyl)phenyl)ethynyl)thiophen-2-yl)-1H-pyrazole-3-carboxamide] here?
Answer: Its value is 0.001 µM and 10 µM.

Question: For `O=C(NN1CCCCC1)c1nn(-c2ccc(Cl)cc2Cl)c(-c2ccc(C#Cc3ccc(C(F)(F)F)cc3)s2)c1CNC(=S)NC1CC1` [Compound 22, 4-((3-Cyclopropylthioureido)methyl)-1-(2,4-dichlorophenyl)-N-(piperidin-1-yl)-5-(5-((4-(trifluoromethyl)phenyl)ethynyl)thiophen-2-yl)-1H-pyrazole-3-carboxamide], which “EC50 for inhibiting Eu-GTP binding” value is on record?
Answer: The value was 0.001 µM and 10 µM.

Question: `O=C(NN1CCCCC1)c1nn(-c2ccc(Cl)cc2Cl)c(-c2ccc(C#Cc3ccc(C(F)(F)F)cc3)s2)c1CNS(=O)(=O)N1CCC(O)CC1` [Compound 157, 1-(2,4-dichlorophenyl)-4-((4-hydroxypiperidine-1-sulfonamido)methyl)-N-(piperidin-1-yl)-5-(5-((4-(trifluoromethyl)phenyl)ethynyl)thiophen-2-yl)-1H-pyrazole-3-carboxamide] was tested. Which “EC50 for inhibiting Eu-GTP binding” value did it give?
Answer: The value was 0.001 µM and 10 µM.

Question: `CNS(=O)(=O)NCc1c(C(=O)NN2CCCCC2)nn(-c2ccc(Cl)cc2Cl)c1-c1ccc(C#CC2CCCC2)s1` [Compound 85, 5-(5-(Cyclopentylethynyl)thiophen-2-yl)-1-(2,4-dichlorophenyl)-4-((N-methylsulfamoylamino)methyl)-N-(piperidin-1-yl)-1H-pyrazole-3-carboxamide] was tested. Which “EC50 for inhibiting Eu-GTP binding” value did it give?
Answer: Its value is 0.001 µM and 10 µM.

Question: With `O=C(NN1CCCCC1)c1nn(-c2ccc(Cl)cc2Cl)c(-c2ccc(C#Cc3ccc(C(F)(F)F)cc3)s2)c1CNS(=O)(=O)N1CC1` [Compound 46, 4-((Aziridine-1-sulfonamido)methyl)-1-(2,4-dichlorophenyl)-N-(piperidin-1-yl)-5-(5-((4-(trifluoromethyl)phenyl)ethynyl)thiophen-2-yl)-1H-pyrazole-3-carboxamide] as the molecule, how does the “EC50 for inhibiting Eu-GTP binding” value read?
Answer: The value was 0.001 µM and 10 µM.

Question: For `O=C(NN1CCCCC1)c1nn(-c2ccc(Cl)cc2Cl)c(-c2ccc(C#Cc3ccc(C(F)(F)F)cc3)s2)c1CN1CC[C@H](O)C1` [Compound 100, 1-(2,4-Dichlorophenyl)-4-(((S)-3-hydroxypyrrolidin-1-yl)methyl)-N-(piperidin-1-yl)-5-(5-((4-(trifluoromethyl)phenyl)ethynyl)thiophen-2-yl)-1H-pyrazole-3-carboxamide], which “EC50 for inhibiting Eu-GTP binding” value is on record?
Answer: Its value is 0.001 µM and 10 µM.

Question: Which “EC50 for inhibiting Eu-GTP binding” value does the source give for `CCCC#Cc1ccc(-c2c(CNC(=O)OC)c(C(=O)NN3CCCCC3)nn2-c2ccc(Cl)cc2Cl)s1` [Compound 69, Methyl(1-(2,4-dichlorophenyl)-5-(5-(pent-1-ynyl)thiophen-2-yl)-3-(piperidin-1-ylcarbamoyl)-1H-pyrazol-4-yl)methylcarbamate] here?
Answer: Its value is 0.001 µM and 10 µM.

Question: How did the “EC50 for inhibiting Eu-GTP binding” value turn out when `CCNC(=S)NCc1c(C(=O)NN2CCCCC2)nn(-c2ccc(Cl)cc2Cl)c1-c1ccc(C#CC2CCCC2)s1` [Compound 80, 5-(5-(Cyclopentylethynyl)thiophen-2-yl)-1-(2,4-dichlorophenyl)-4-((3-ethylthioureido)methyl)-N-(piperidin-1-yl)-1H-pyrazole-3-carboxamide] was run?
Answer: Its value is 0.001 µM and 10 µM.

Question: With `COC(=O)NCc1c(C(=O)NN2CCCCC2)nn(-c2ccc(Cl)cc2Cl)c1-c1ccc(C#Cc2ccc(C(F)(F)F)cc2)s1` [Compound 17, Methyl(1-(2,4-dichlorophenyl)-3-(piperidin-1-ylcarbamoyl)-5-(5-((4-(trifluoromethyl)phenyl)ethynyl)thiophen-2-yl)-1H-pyrazol-4-yl)methylcarbamate] as the molecule, how does the “EC50 for inhibiting Eu-GTP binding” value read?
Answer: Its value is 0.001 µM and 10 µM.
